Patent publication US20110105724A1 (published 2011)
Results are given in words; binding and its absence hold for the method and conditions named. Some binding calls cover weakened binding; strength is not graded here.

B1: humanized antibody A0L0 (antibody, human IgG1, kappa, V domains shown)
VH: QVQLVQSGAEVKKPGASVKVSCKASGYTFTSYWMHWVRQAPGQGLEWMGEIDPSDSNTNYNQKFKGRVTMTRDTSISTAYMELSRLRSDDTAVYYCARELLHAVYWGQGTLVTVSS
VL: DIQMTQSPSSLSASVGDRVTITCTASQDIHKYISWYQQKPGKAPKLLIYDTSTLQPGVPSRFSGSGSGTDFTFTISSLQPEDIATYYCLQYDNLWTFGQGTKVEIKR
notes: Humanized 1C1.5E5, human IgG1/kappa
B2: humanized antibody A1L0 (antibody, human IgG1, kappa, V domains shown)
VH: QVQLVQSGAEVKKPGASVKVSCKASGYTFTSYWMHWVRQAPGQGLEWMGEIDPSDSNTNYNQKFKGKVTMTRDTSISTAYMELSRLRSDDTAVYYCARELLHAVYWGQGTLVTVSS
VL: DIQMTQSPSSLSASVGDRVTITCTASQDIHKYISWYQQKPGKAPKLLIYDTSTLQPGVPSRFSGSGSGTDFTFTISSLQPEDIATYYCLQYDNLWTFGQGTKVEIKR
notes: Humanized 1C1.5E5, human IgG1/kappa; also called AIL0

Target: T1, human IL-8 (interleukin-8) (human, UniProt P10145 28-99, limits assumed)
T1 construct: also called recombinant human IL-8
T1 sequence (looked up): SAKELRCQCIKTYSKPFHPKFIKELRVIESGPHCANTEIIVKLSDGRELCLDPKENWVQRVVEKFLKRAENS
Assay: ELISA

Binder	binding
B1	binds
B2	binds
